Test results as given in PubChem BioAssay AID330 (DTP/NCI, 2004).
The list does not hold the whole screen: it gathers tests that were run many times, whatever their T/C, doses with no T/C, and many T/C values between a quarter and a half above the control. Other doses and runs of a compound stand elsewhere. T/C gives the treated animals as a percentage of the vehicle group. Some entries give survivors of the animals treated and no T/C: the source files T/C as zero there, which appears to mark a toxic dose or a test without result, not a measured value. Some doses without a T/C left all or most animals alive at the check, yet need not have been tolerated: the source hardly ever lists a survival T/C far under the control, and the zero likely stands for such cases as well. Counts of survivors are from the toxicity check (mostly the fifth day) where no day follows; animals may have died later. Schedules are NCI's codes, read here as Q, the interval in days (D) or hours (H), X, the number of doses. Where survival is the endpoint, this PubChem deposit counts one and a half times the control or more as active, and values a quarter to a half above the control carry no call in these data; other NCI protocols may use other cut-offs. Some doses were run more than once; the values are given in rising order. Some T/C values carry the count of animals alive at the toxicity check (mostly the fifth day); without a count, all were alive then.

Test system: P388 leukemia ip, CD2F1 mice, survival T/C
Assay: NCI In Vivo Anticancer Drug Screen. Data for tumor model P388 Leukemia (intraperitoneal) in CD2F1 (CDF1) mice
Details: T/C endpoint: median survival time, higher T/C = longer survival
[1] = dose: 200.0 mg/kg/injection, schedule: Q01DX005 (ip), vehicle: saline with Tween-80
[2] = dose: 200.0 mg/kg/injection, schedule: Q01DX009 (ip), vehicle: saline with Tween-80
[3] = dose: 2.0 mg/kg/injection, schedule: Q01DX009 (ip), vehicle: saline + alcohol

CNC(=O)OCc1nc(SC)n(Cc2ccccc2)c1COC(=O)NC
T/C [1]: 129 % of control
T/C (dose: 400.0 mg/kg/injection, schedule: Q01DX005 (ip), vehicle: saline with Tween-80): 127 % of control

Cc1c2ccccc2c(C)c2c1ccc1ccccc12
T/C (dose: 12.5 mg/kg/injection, schedule: Q01DX009 (ip), vehicle: saline with Tween-80): 126 and 130 % of control
survivor count (dose: 100.0 mg/kg/injection, schedule: Q01DX009 (ip), vehicle: saline with Tween-80): 6 of 6
survivor count [2]: 6 of 6
survivor count (dose: 200.0 mg/kg/injection, schedule: Q04DX003 (ip), vehicle: other): 0 of 6
survivor count (dose: 400.0 mg/kg/injection, schedule: Q01DX009 (ip), vehicle: saline with Tween-80): 5 of 6

CC1CN=C(c2ccc(NC(=O)NCCCCCCCCCCCCNC(=O)Nc3ccc(C4=NCC(C)N4)cc3)cc2)N1 (stereo unspecified)
survivor count [1]: 1 of 6

CS/C(=C(\C#N)C(N)=O)N1CC1
survivor count (dose: 400.0 mg/kg/injection, schedule: Q04DX002 (ip), vehicle: DMSO): 0 of 3

CC(C)(C)c1ccnc(N=C2N=C(Nc3cc(C(C)(C)C)ccn3)c3ccccc32)c1
survivor count [2]: 6 of 6

COC(=O)[C@@]12OC[C@]34[C@H]([C@@H](O)[C@@H]1O)[C@@]1(C)CC(=O)C(O)=C(C)[C@@H]1C[C@H]3OC(=O)[C@H](OC(=O)CC(C)C)[C@@H]24
T/C (dose: 0.25 mg/kg/injection, schedule: Q01DX009 (ip), vehicle: saline + alcohol): 134 % of control
T/C (dose: 0.5 mg/kg/injection, schedule: Q01DX009 (ip), vehicle: saline + alcohol): 129 [5 of 6 alive] and 137 % of control
T/C (dose: 1.0 mg/kg/injection, schedule: Q01DX009 (ip), vehicle: saline + alcohol): 144 and 146 % of control
T/C [3]: 134 % of control [5 of 6 alive]
survivor count [3]: 3 of 6
survivor count (dose: 4.0 mg/kg/injection, schedule: Q01DX009 (ip), vehicle: saline + alcohol): 0 of 6
